# Test results published in PubChem BioAssay AID2685 (National Center for Advancing Translational Sciences (NCATS), 2010).
# The list shows a part of the results. These are further read-outs of the screen, such as a control signal, another cell line or another target. No call is given for them. The list favours compounds with an active or inconclusive main result. The note in brackets gives the kind of curve behind each potency; many fits are weak.
# Assay: qHTS Assay for Lipid Storage Modulators in Drosophila S3 Cells;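 as to cell number change: cells counted by Cell Tracker Red CMTPX staining in the red channel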
# Conditions: BODIPY lipid droplet fluorescence, 18-24 h; for cell number change: measured here: cell count max response, cells fed with added oleic acid
# Procedure, shortened: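 Drosophila S3 cells loaded with oleic acid (400 uM, as added) and compounds at several concentrations; lipid droplets imaged by 488-nm laser-scanning cytometry, 500–530 nm intensity and object ratio to cell channel. Percent activity normalized to 20 uM Triacsin C.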
# [1] = measured here: lipid fluorescence (Fed channel) AC50, cells fed with added oleic acid
# [2] = measured here: cell number channel AC50, cells fed with added oleic acid
Structure (SMILES),cell number change,AC50 [1],AC50 [2]
Cc1cc(C)n(-c2nc3ccccc3c(=O)n2OCC(=O)Nc2c(C)cccc2C)n1,19.4%,"2.06 µM [rising, partial curve]",–
O=C(NCCCn1ccnc1)c1ccc(C(F)(F)F)cc1,14.2%,–,–
CC1CCN(Cc2csc(N)n2)CC1,-24.5%,"0.13 µM [falling, full curve, poor fit]","7.31 µM [falling, partial curve, poor fit]"
CC(C)(C)C(=O)NC(=S)Nc1ccc(Cl)c(C(=O)O)c1,15.7%,"6.51 µM [falling, partial curve, poor fit]",–
COc1cc(NC(=O)C2CCC(CNc3c(N4CCC(C)CC4)c(=O)c3=O)CC2)cc(OC)c1 (stereo not given),5.46%,"25.9 µM [rising, single point]",–
O=C(NCc1cn(-c2ccccc2)nc1-c1ccccc1)c1cccc([N+](=O)[O-])c1,39.2%,"29.1 µM [falling, single point]","4.11 µM [rising, full curve]"
O=C(O)/C=C/C(=O)Nc1ccccc1SC(F)(F)C(F)(F)C(F)(F)F,-116%,"29.1 µM [falling, partial curve]","29.1 µM [falling, partial curve, poor fit]"
O=C(OCC(=O)N(C1CCCCC1)C1CCCCC1)c1ccc(Cl)nc1,11.1%,"29.1 µM [rising, single point]",–
CNC(=S)SCCOc1ccccc1,6.4%,"0.82 µM [rising, single point]",–
CCOC(=O)c1sc2nc(CC(=O)OC)nc(NCc3ccc(Cl)cc3)c2c1C,24.1%,"2.06 µM [rising, partial curve]","1.84 µM [rising, partial curve]"
Cc1cc(=O)[nH]c(SCC(=O)OCc2ccccc2)c1C#N,13.8%,"1.64 µM [falling, partial curve]",–
CCOC(=O)N1CCN(CC(O)COCc2cc(OC)c(OC)c(OC)c2)CC1 (stereo not given),-36.8%,–,"0.517 µM [rising, full curve]"
N#CC(=C1CCCC1)c1nc(-c2cc3ccccc3oc2=O)cs1,19%,"0.92 µM [rising, full curve]",–
CC/C(=N\NC(=O)c1c(C)nc2ccccn12)c1ccccc1,-0.451%,"0.58 µM [rising, single point]",–
CN1CCN(C(c2ccc(Cl)cc2)c2cc(Cl)c3cccnc3c2O)CC1 (stereo not given),26.5%,"29.1 µM [rising, single point]",–
Clc1ccc(CN=C2Nc3ccccc3CS2)cc1,-26%,–,–
CC(C)C(=O)Nc1ccc(C(=O)NNC(=O)c2ccco2)cc1,-12.4%,–,"0.00411 µM [falling, full curve, poor fit]"
Oc1sc(C=Nc2ccc(F)cc2)c2ccccc12,–,–,"6.51 µM [rising, single point]"
CC(=O)N1c2ccccc2NC(=O)C1(C)C,-28.9%,–,"2.06 µM [falling, full curve, poor fit]"
O=C(CN1CCc2ccccc21)NC(=O)NCc1ccco1,–,"29.1 µM [falling, single point]",–

Structure (SMILES),cell number change,AC50 [1],AC50 [2]
O=[N+]([O-])c1c(NCCCO)cc(Sc2ccc(Cl)cc2)c2nonc12,-48.5%,"4.11 µM [falling, full curve]","3.66 µM [falling, full curve]"
CCOC(=O)c1nc(S(C)(=O)=O)ncc1N1CCOCC1,7.9%,"5.17 µM [falling, partial curve, poor fit]",–
COCCn1c(Cc2ccccc2)nnc1SCC(=O)NC1CCCCC1,15.2%,"29.1 µM [rising, single point]",–
Cc1ccc(NC(=O)CSc2nnc(Cc3ccccc3)o2)cc1,18.1%,–,–
COc1ccc(-c2noc(CCC(=O)NC3CCCCCC3)n2)cc1,83.9%,"11.6 µM [rising, single point]","16.4 µM [rising, partial curve]"
C=CCNS(=O)(=O)c1ccc2nsnc2c1,–,–,"0.731 µM [rising, single point]"
Cc1ccc(S(=O)(=O)N2CCCCC2CCNC(=O)C(=O)NCC2CCCO2)cc1 (stereo not given),-3.95%,–,–
CCOC(=O)C1(Cc2ccccc2)CCCN(CCCn2cccn2)C1 (stereo not given),23.9%,–,–
O=C(Nc1ccc(O)c2c(=O)cc(-c3cccc(Cl)c3)oc12)c1cccc(Cl)c1,-5.83%,"0.0326 µM [rising, full curve, poor fit]",–
CCOc1ncccc1C(=O)OCc1c(F)cccc1Cl,–,"6.51 µM [falling, single point]",–
O=C(c1cccc(S(=O)(=O)N2CCCC2)c1)c1cccc(S(=O)(=O)N2CCCC2)c1,-37.5%,–,"0.731 µM [falling, partial curve]"
C/C(N)=C(/C#N)C(=O)COC(=O)CNS(=O)(=O)c1ccc(F)c(F)c1F,23.5%,"0.146 µM [rising, full curve, poor fit]","0.146 µM [rising, full curve, poor fit]"
CCOc1ccc2nc(NC(=O)c3cc([N+](=O)[O-])ccc3N3CCOCC3)sc2c1,1.42%,"0.731 µM [rising, partial curve, poor fit]",–
Cc1cc(C)cc(C(=O)Nc2ccc(N3CCN(C(=O)c4ccco4)CC3)cc2)c1,-3.88%,–,–
COc1ccc(Cl)cc1S(=O)(=O)n1ccnc1C(C)C,7.13%,–,–
O=C(Oc1ccc(N(Cc2cccs2)C2=NS(=O)(=O)c3ccccc32)cc1)c1ccccc1,-37.9%,–,"3.26 µM [rising, single point]"
C=CCOC(=O)C1=C(C)NC(SC)=C(C#N)C1c1ccc(OCC)cc1 (stereo not given),-14.4%,–,–
O=C(CN1C(=O)NC2(CCCc3ccccc32)C1=O)Nc1ccccc1OC(F)F (stereo not given),7.64%,"0.0291 µM [falling, full curve, poor fit]",–
NC(=O)N1CCc2ccccc21,-36.3%,"32.6 µM [falling, single point]",–
CCC(C)[C@@H](C(=O)Nc1ccc2c(c1)OCO2)N1Cc2ccccc2C1=O (stereo not given in full),24.4%,"0.0326 µM [rising, full curve, poor fit]",–

# An excerpt of these results, tab-delimited.
Structure (SMILES)	cell number change	AC50 [1]	AC50 [2]
CCOC(=O)C1(Cc2ccccc2)CCCN(CCCn2cccn2)C1 (stereo not given)	23.9%	–	–
O=C(c1cccc(S(=O)(=O)N2CCCC2)c1)c1cccc(S(=O)(=O)N2CCCC2)c1	-37.5%	–	0.731 µM [falling, partial curve]

# Remaining list, next part:

Structure (SMILES),cell number change,AC50 [1],AC50 [2]
CCOc1ccc(-c2nnc(SCC(=O)N3CCOCC3)o2)cc1,18.1%,"2.91 µM [rising, full curve]",–
COC(=O)[C@H](Cc1ccccc1)NC(=O)N1CCC(C)CC1,-14%,"20.6 µM [falling, partial curve]",–
Cn1nc(C(F)(F)F)cc1C(=O)Nc1ccc(Cl)cc1,-30%,"1.64 µM [falling, full curve]","2.59 µM [falling, full curve]"
C/C(N)=C(/C#N)C(=O)COC(=O)c1cccc(O)c1,-9.62%,"0.92 µM [rising, full curve]","0.13 µM [rising, full curve]"
CC(=O)Nc1cccc(NC(=O)CS(=O)(=O)c2cn(CC(=O)N3CCCC3)c3ccccc23)c1,-7.65%,"29.1 µM [rising, single point]",–
Cn1ccnc1SCc1cn2cc(Br)ccc2n1,20.3%,"29.1 µM [rising, single point]","0.82 µM [rising, full curve, poor fit]"
O=c1cc2c(n[nH]1)CCCC2,–,"29.1 µM [falling, single point]",–
CSc1ccccc1C(=O)N1CCCCC1,-21.8%,"11.2 µM [falling, partial curve, poor fit]",–
CCCNC(=O)c1nnsc1S(=O)(=O)c1ccc(Cl)cc1,-37%,"29.1 µM [falling, partial curve]","20.6 µM [falling, single point]"
COc1cc(S(=O)(=O)Nc2ccccc2)ccc1NC=O,52.4%,"9.2 µM [rising, partial curve]","0.731 µM [rising, full curve, poor fit]"
COc1ccc(CCNC(=O)COC(=O)CNS(=O)(=O)c2ccc(SC)c([N+](=O)[O-])c2)cc1,-2.76%,"1.64 µM [rising, partial curve]",–
Cc1ccccc1-n1c(-c2csc3ccccc23)n[nH]c1=S,17.1%,"0.058 µM [falling, full curve, poor fit]",–
COc1cc2nc(=S)n3[nH]c(COc4ccccc4C)nc3c2cc1OC,-0.74%,–,–
O=C(Nc1nnc(CCN2CCCCC2)s1)C1CCCCC1,-32.6%,"3.26 µM [falling, partial curve]","0.651 µM [falling, full curve]"
O=C(COC(=O)CCN1C(=O)C2CC=CCC2C1=O)NCCc1ccccc1 (stereo not given),-3.87%,"0.146 µM [rising, full curve]",–
COc1ccc(Cl)cc1NC(=O)COC(=O)C1CCCCC1,-32.9%,"9.2 µM [falling, partial curve]","0.13 µM [falling, full curve, poor fit]"
CC(=O)Nc1ccc(C(=O)N/N=C(\C)CC(=O)Nc2ccc(OCc3ccccc3)cc2)cc1,-7.95%,"10.3 µM [falling, partial curve]",–
CN(C(=O)COC(=O)CSc1ccc(C(N)=O)cc1[N+](=O)[O-])C1CCS(=O)(=O)C1 (stereo not given),17.5%,–,–
CCOC(=O)C(NCCCO)c1ccccc1 (stereo not given),7.32%,"1.84 µM [falling, partial curve]","1.84 µM [falling, partial curve]"
COCCNc1nnc(SCC(=O)Nc2cc(C)on2)s1,17.2%,"0.00461 µM [falling, full curve, poor fit]",–

# Some values from the list:
# Under AC50 [1], COCCNc1nnc(SCC(=O)Nc2cc(C)on2)s1 is entered as 0.00461 µM [falling, full curve, poor fit]
# Under cell number change, Clc1ccc(CN=C2Nc3ccccc3CS2)cc1 is entered as -26%
